Results deposited as PubChem BioAssay AID1259425 (University of Nebraska Medical Center, 2018).
In all, the deposit lists about 14,000 reagents; shown is an unselected part. Not given: the time to read-out.

Aim: 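Find knockdowns that reproduce the gene expression pattern seen when KSR1 is lost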 (primary screen)
System: HCT116 human colon cancer cells
Knock-down reagent: siRNA pool against human genes, 50 nM siRNA
Measured: 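After 50 nM siRNA pool, branched-DNA assay measures six marker transcripts per well, minus blank, normalised to the geometric mean of two housekeeping transcripts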
Scale: BNIP3L mRNA: higher = more BNIP3L transcript after knockdown; NDRG1 mRNA: higher = more NDRG1 transcript after knockdown; BNIP3 mRNA: higher = more BNIP3 transcript after knockdown; ALDOC mRNA: higher = more ALDOC transcript after knockdown; ACSL5 mRNA: higher = more ACSL5 transcript after knockdown

The opening 3 entries, ahead of the listing:
| target | BNIP3L mRNA, set 1 | NDRG1 mRNA, set 1 | BNIP3 mRNA, set 1 | ALDOC mRNA, set 1 | ACSL5 mRNA, set 1 |
| --- | --- | --- | --- | --- | --- |
| MTPAP (mitochondrial poly(A) polymerase) | 0.118 | 0.146 | 0.247 | 0.0188 | 0.161 |
| CNNM1 | 0.114 | 0.0646 | 0.277 | 0.018 | 0.137 |
| ZNF84 (zinc finger protein 84) | 0.121 | 0.112 | 0.243 | 0.011 | 0.171 |

Main list, from the first entry:
| target | BNIP3L mRNA, set 1 | NDRG1 mRNA, set 1 | BNIP3 mRNA, set 1 | ALDOC mRNA, set 1 | ACSL5 mRNA, set 1 |
| --- | --- | --- | --- | --- | --- |
| MTPAP (mitochondrial poly(A) polymerase) | 0.118 | 0.146 | 0.247 | 0.0188 | 0.161 |
| CNNM1 | 0.114 | 0.0646 | 0.277 | 0.018 | 0.137 |
| ZNF84 (zinc finger protein 84) | 0.121 | 0.112 | 0.243 | 0.011 | 0.171 |
| TOGARAM1 (TOG array regulator of axonemal microtubules 1) | 0.13 | 0.338 | 0.27 | 0.0359 | 0.101 |
| CFAP92 (cilia and flagella associated protein 92 (putative)) | 0.117 | 0.0876 | 0.152 | 0.0255 | 0.347 |
| MATN4 (matrilin 4) | 0.234 | 0.0363 | 0.358 | 0.0366 | 0.277 |
| FAM161A (FAM161 centrosomal protein A) | 0.327 | 0.651 | 0.329 | 0.135 | 0.844 |
| SLC30A5 | 0.327 | 0.479 | 0.456 | 0.0336 | 0.403 |
| TBC1D2 (TBC1 domain family member 2) | 0.214 | 0.592 | 0.395 | 0.0282 | 0.149 |
| MSTN (myostatin) | 0.0546 | 0.0461 | 0.212 | 0.0206 | 0.0733 |
| SPCS3 (signal peptidase complex subunit 3) | 0.0643 | 0.09 | 0.227 | 0.019 | 0.101 |
| TFB1M (transcription factor B1, mitochondrial) | 0.151 | 0.178 | 0.222 | 0.0325 | 0.146 |
| PER1 (period circadian regulator 1) | 0.138 | 0.909 | 0.327 | 0.00703 | 0.097 |
| NPPC (natriuretic peptide C) | 0.056 | 0.147 | 0.291 | 0.0253 | 0.0974 |
| GAL3ST1 (galactose-3-O-sulfotransferase 1) | 0.202 | 0.231 | 0.627 | 0.0217 | 0.098 |
| CHAF1B (chromatin assembly factor 1 subunit B) | 0.21 | 0.677 | 0.353 | 0.0456 | 0.123 |
| ASB1 (ankyrin repeat and SOCS box containing 1) | 0.148 | 0.755 | 0.447 | 0.02 | 0.545 |
| ZSCAN16 (zinc finger and SCAN domain containing 16) | 0.109 | 0.291 | 0.36 | 0.0693 | 0.142 |
| ARSG (arylsulfatase G) | 0.39 | 0.14 | 0.581 | 0.1 | 0.146 |
| FAM222B (family with sequence similarity 222 member B) | 0.0656 | 0.293 | 0.258 | 0.0181 | 0.168 |
| PRPF31 (pre-mRNA processing factor 31) | 0.159 | 0.105 | 0.425 | 0.0368 | 0.124 |
| CYB5A (cytochrome b5 type A) | 0.107 | 0.135 | 0.2 | 0.0108 | 0.157 |
| AXL (AXL receptor tyrosine kinase) | 0.074 | 0.15 | 0.405 | 0.0175 | 0.195 |
| AFF4 (ALF transcription elongation factor 4) | 0.15 | 0.0731 | 0.391 | 0.0155 | 0.132 |
| GTF2IRD1 (GTF2I repeat domain containing 1) | 0.127 | 0.175 | 0.338 | 0.00916 | 0.162 |
| ADAMTS17 (ADAM metallopeptidase with thrombospondin type 1 motif 17) | 0.0424 | 0.587 | 0.249 | 0.0487 | 0.155 |
| WASHC5 (WASH complex subunit 5) | 0.103 | 0.17 | 0.275 | 0.0353 | 0.196 |
| CYP7A1 (cytochrome P450 family 7 subfamily A member 1) | 0.167 | 0.339 | 0.351 | 0.0322 | 0.231 |
| KATNB1 (katanin regulatory subunit B1) | 0.0974 | 0.301 | 0.267 | 0.0276 | 0.184 |
| KRTAP1-3 (keratin associated protein 1-3) | 0.248 | 0.17 | 0.385 | 0.131 | 0.214 |
| NEFL (neurofilament light chain) | 0.113 | 0.684 | 0.268 | 0.0267 | 0.384 |
| SCNN1A (sodium channel epithelial 1 subunit alpha) | 0.118 | 0.633 | 0.508 | 0.0182 | 0.103 |
| SOHLH2 | 0.0441 | 0.374 | 0.24 | 0.018 | 0.242 |
| SOX12 (SRY-box transcription factor 12) | 0.303 | 0.612 | 0.356 | 0.0114 | 0.08 |
| UBA5 (ubiquitin like modifier activating enzyme 5) | 0.106 | 0.0507 | 0.15 | 0.0367 | 0.216 |
| RHCE (Rh blood group CcEe antigens) | 0.159 | 0.161 | 0.342 | 0.039 | 0.19 |
| TRIM32 (tripartite motif containing 32) | 0.162 | 0.165 | 0.376 | 0.0332 | 0.139 |
| NKG7 (natural killer cell granule protein 7) | 0.182 | 0.243 | 0.355 | 0.0439 | 0.37 |
| IL36RN (interleukin 36 receptor antagonist) | 0.0666 | 0.0917 | 0.25 | 0.0261 | 0.0719 |
| CYP4A11 (cytochrome P450 family 4 subfamily A member 11) | 0.118 | 0.139 | 0.195 | 0.013 | 0.0885 |
| OR2J2 (olfactory receptor family 2 subfamily J member 2) | 0.211 | 0.211 | 0.364 | 0.0568 | 0.255 |
| NBEA (neurobeachin) | 0.189 | 0.479 | 0.195 | 0.0381 | 0.266 |
| S100P (S100 calcium binding protein P) | 0.25 | 0.736 | 0.421 | 0.0386 | 0.437 |
| PRCP (prolylcarboxypeptidase) | 0.0719 | 0.109 | 0.247 | 0.0177 | 0.177 |
| CD101 (CD101 molecule) | 0.111 | 0.14 | 0.536 | 0.0071 | 0.579 |
| CYP39A1 (cytochrome P450 family 39 subfamily A member 1) | 0.125 | 0.386 | 0.315 | 0.027 | 0.192 |
| HEY1 | 0.0511 | 0.12 | 0.216 | 0.00449 | 0.183 |
| CHRNE (cholinergic receptor nicotinic epsilon subunit) | 0.124 | 0.199 | 0.145 | 0.0623 | 0.235 |
| RP1 (RP1 axonemal microtubule associated) | 0.214 | 0.351 | 0.171 | 0.0464 | 0.315 |
| CT55 (cancer/testis antigen 55) | 0.0564 | 0.128 | 0.285 | 0.019 | 0.163 |
